Results: PubChem BioAssay AID504444 (National Center for Advancing Translational Sciences (NCATS), 2011)
The whole screen tested about 360,000 compounds, of which about 7,500 (2.1%) were called active. The shares of active, inactive and inconclusive entries below differ from those in the screen. The call rests on the fitted dose curve; in most records, active means well fitted inhibition curve with a large enough effect; inconclusive means small, poorly fitted or top-dose-only effect, or effect the other way; inactive means flat fitted curve, though single readings scatter. Potencies beside an inconclusive call are fits to weak or partial responses and may not hold up.

experiment: Nrf2 qHTS screen for inhibitors; conditions: A549 ARE-Fluc reporter, luciferase luminescence, 18-24 h; activity change, negative = inhibition: at 46 µM (top of the series); further: nearly all actives have a fitted effect of over 60% in size
In short: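 Nrf2 function is reported as luminescence of an ARE-controlled luciferase in A549 cells. Compounds were tested at several concentrations, and a CellTiter-Fluor read on the same wells flagged cytotoxicity.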
On the % scale 0 is the no-effect control and ±100 the full control effect; potency means the concentration at half of the fitted maximal effect.

Row | Compound | Potency | activity change, negative = inhibition
1 | Nc1c(S(=O)(=O)O)cc(NC(=O)c2ccccc2)c2c1C(=O)c1ccccc1C2=O | inactive | –
2 | COc1ccc(OCC(=O)Nc2ccc3oc(-c4ccncc4)nc3c2)cc1 | inconclusive: 29.1 µM [activator, single point] | –
3 | O=C(Nc1ccc2c(c1)OCCO2)N1CCOCC1 | inconclusive: 6.51 µM [activator, partial curve, poor fit] | –
4 | Cc1ccc(S(=O)(=O)N2CCCCC2)cc1C(=O)OC(C)C(=O)NC1CCCCC1C (configuration not stated) | inconclusive: 18.4 µM [falling, partial curve, poor fit] | –
5 | COc1ccc(NC(=O)C2CC(=O)N(c3cccc(C)c3C)C2)cc1 (configuration not stated) | inconclusive: 2.59 µM [activator, single point] | –
6 | O=C(CSc1nc2cc(C(F)(F)F)ccc2n1Cc1ccccc1)NC1CCS(=O)(=O)C1 (configuration not stated) | inconclusive: 20.6 µM [falling, single point] | –
7 | O=C(NN1CCCCC1)c1cccc(COc2ccc(Cl)cc2)c1 | inconclusive: 2.91 µM [activator, full curve] | –
8 | COc1ccccc1NC(=S)NC(=O)/C=C/c1cccs1 | inconclusive: 9.2 µM [falling, partial curve] | –
9 | CCN(/C=N/c1sc2c(c1C#N)CC(C)(C)NC2(C)C)CC | inconclusive: 6.51 µM [activator, partial curve] | –
10 | Cc1ccccc1Oc1nc2ccccn2c(=O)c1/C=C(\C#N)c1nc2ccccc2[nH]1 | inactive | –
11 | O=C(NC1=NCCS1)c1ccc(C(F)(F)F)cc1 | inconclusive: 16.4 µM [activator, partial curve] | –
12 | COc1cccc(OCc2cc(C(=O)NCc3cnc4ccccn34)no2)c1 | inconclusive: 29.1 µM [falling, single point] | –
13 | CCC(CC)C(=O)Nc1ccc2nc(SCC(=O)N3CCCC3)sc2c1 | inconclusive: 23.1 µM [falling, partial curve, poor fit] | –
14 | COc1ccc(C2Oc3ccccc3C3=C2C(c2cccs2)n2ncnc2N3)cc1 (configuration not stated) | inconclusive: 20.6 µM [falling, single point] | –
15 | O=C(c1cccc(S(=O)(=O)N2CCOCC2)c1)N1CCOCC1 | inconclusive: 10.3 µM [falling, partial curve, poor fit] | –
16 | Fc1ccc(CNc2ncnc3cc(Cl)ccc23)cc1 | inconclusive: 23.1 µM [falling, single point] | –
17 | Cn1c(=S)[nH]c2cc(C(=O)N3CCN(Cc4cccs4)CC3)ccc2c1=O | inconclusive: 18.4 µM [activator, partial curve] | –
18 | CC1CCN(CCCNC(=O)c2ccc(CS(=O)(=O)Cc3ccc(Cl)cc3)o2)CC1 | inconclusive: 29.1 µM [falling, single point] | –
19 | O=c1c(/C=C(\O)c2ccc(F)cc2)nc2ccccc2n1-c1ccccc1 | inactive | –
20 | CC(=O)C(N=Nc1ccccc1)(Sc1nnc(-c2ccccc2)n1-c1ccccc1)C(C)=O | inconclusive: 25.9 µM [falling, partial curve, poor fit] | –
21 | COc1ccc(Cc2nnc(Cl)c3ccccc23)cc1OC | inactive | –
22 | O=S(=O)([N-]c1nc2ccccc2nc1-[n+]1ccc(Cc2ccccc2)cc1)c1ccc(Br)s1 | inconclusive: 29.1 µM [falling, single point] | –
23 | COc1ccc(C(=O)N/N=C/c2ccc(OC(=O)c3ccccc3)cc2)cc1 | inactive | –

Row | Compound | Potency | activity change, negative = inhibition
24 | Cn1c(=O)[nH]c(=O)c2c1nc(N1CCOCC1)n2Cc1ccccc1 | inconclusive: 4.11 µM [falling, partial curve, poor fit] | –
25 | CCC(=O)N1CCCc2cc(S(=O)(=O)N3CCN(c4ncccn4)CC3)ccc21 | inconclusive: 23.1 µM [falling, partial curve, poor fit] | –
26 | CCc1cccc(NC(=O)CCc2nc3cccnc3n2Cc2ccc(OC)cc2)c1 | inconclusive: 13 µM [falling, partial curve] | –
27 | COCCN(Cc1ccccc1)C(=S)Nc1ccc(OC(F)F)cc1 | inactive | –
28 | c1ccc2c(c1)oc1c(Nc3ccc(CN4CCOCC4)cc3)ncnc12 | inconclusive: 1.3 µM [activator, full curve, poor fit] | –
29 | CC(=O)Oc1ccc(N2C(=O)C3C(C2=O)C(C(=O)c2ccc(Cl)cc2)N2CCCC32)cc1 (configuration not stated) | inconclusive: 29.1 µM [falling, single point] | –
30 | Cc1oc(-c2ccccc2)nc1C(=O)Nc1nccs1 | inconclusive: 0.103 µM [activator, full curve, poor fit] | –
31 | CCOC(=O)C1(Cc2cccc(Cl)c2)CCCN(C(=O)c2cccc(C)n2)C1 (configuration not stated) | inconclusive: 16.4 µM [falling, partial curve] | –
32 | NC(=O)c1ccccc1N/C=C/C(=O)c1ccc(Cl)cc1 | inconclusive: 11.2 µM [activator, partial curve] | –
33 | COc1ccc(C)cc1NC(=O)C(Sc1nnc(-c2ccncc2)n1-c1ccc(Cl)cc1)c1ccccc1 (configuration not stated) | active: 25.9 µM | –
34 | O=S(=O)(Nc1ccncc1Cl)c1cc(Cl)ccc1Cl | inconclusive: 18.4 µM [falling, partial curve, poor fit] | –
35 | Cc1c(Cl)cccc1NC(=S)NCC(C)C | inconclusive: 25.9 µM [falling, single point] | –
36 | O=C(Nc1cccc(-c2nc3ncccc3o2)c1)c1ccco1 | inconclusive: 18.4 µM [falling, single point] | –
37 | Cc1ccc2nc(-c3cccs3)c(Nc3c(C)cccc3C)n2c1 | inactive | –
38 | CN(C)c1ccc(NC(=O)CN2CCc3ccccc3C2)cc1 | inconclusive: 2.06 µM [activator, full curve] | –
39 | CC(C(=O)N1CCc2ccccc21)N1CCN(S(=O)(=O)c2cccs2)CC1 (configuration not stated) | inconclusive: 18.4 µM [falling, partial curve, poor fit] | –
40 | CCOc1ccc(OCc2ccc(C(=O)NN=Cc3ccc[nH]3)cc2)cc1 | active: 1.84 µM | –
41 | Cc1cc(C)c(S(=O)(=O)c2ccccc2)c(OC(=O)c2c(F)cccc2F)n1 | inconclusive: 4.11 µM [activator, full curve] | –
42 | COc1ccc(CCNc2oc(Cc3ccccc3)nc2C#N)cc1OC | inconclusive: 25.9 µM [falling, partial curve, poor fit] | –
43 | Cc1ccc2c(c1)c1c(c(=O)n(-c3cccc(Cl)c3)c(=O)n1CC(=O)NCC1CCCO1)n2C (configuration not stated) | inconclusive: 9.2 µM [activator, partial curve] | –
44 | c1csc(-c2nn[nH]n2)c1 | inconclusive: 29.1 µM [activator, single point] | –
45 | COc1ccc([N+](=O)[O-])cc1NC(=S)NC(NC(=O)C(c1ccccc1)c1ccccc1)C(Cl)(Cl)Cl (configuration not stated) | active: 14.6 µM | –
46 | Cc1ccc(Nc2c(-c3c[nH]c4ccccc34)nc3ccccn23)cc1 | – | inactive: 2.03% [at 9.27 µM]

Row | Compound | Potency | activity change, negative = inhibition
47 | Cc1cc(OCC(=O)Nc2ccncc2)cc(C)c1Cl | active: 13 µM | –
48 | CC(C)Oc1ccccc1-c1nc(SCC(=O)c2ccc(F)cc2)n[nH]1 | inconclusive: 16.4 µM [falling, partial curve, poor fit] | –
49 | O=C(CSc1nnc2n1CCCN2)c1ccc([N+](=O)[O-])cc1 | inactive | –
50 | O=c1oc2ccccc2c(NCCc2ccccc2)c1[N+](=O)[O-] | inconclusive: 20.6 µM [falling, single point] | –
51 | Cc1ccccc1Oc1nc2c(C)cccn2c(=O)c1/C=C(\C#N)C(=O)NC1CCS(=O)(=O)C1 (configuration not stated) | inactive | –
52 | Cc1ccc(NC(=O)Cn2c(=O)n(Cc3ccccc3)c(=O)c3sc4ccccc4c32)cc1 | inactive | –
53 | Cc1ccc(-n2c(=O)c3sc4ccccc4c3n(CC(=O)NC3CCCC3)c2=O)cc1C | inconclusive: 16.4 µM [falling, partial curve, poor fit] | –
54 | O=C(Nc1ccccc1N1CCN(c2ccccc2)CC1)c1ccccc1F | inconclusive: 23.1 µM [falling, single point] | –
55 | CCOC(=O)C1=CN(Cc2cccc(F)c2)S(=O)(=O)N(C)C1c1ccccc1 (configuration not stated) | inconclusive: 23.1 µM [falling, single point] | –
56 | Cc1cc(Cl)ccc1N=c1ssnc1Cl | inconclusive: 29.1 µM [falling, single point] | –
57 | Cc1csc(NC(=O)Cc2ccc(Br)cc2)n1 | inactive | –
58 | COc1ccc(CN2C(=O)C(NC(=O)c3cccc(C)c3)(C(F)(F)F)N=C2c2ccccc2)cc1 (configuration not stated) | inactive | –
59 | N#Cc1c(N2CCCC2)nsc1-c1ccccc1 | inconclusive: 16.4 µM [activator, partial curve] | –
60 | COc1ccc(C2Nc3ccccc3C(=O)N2CCc2ccccc2)cc1COc1ccc(NC(C)=O)cc1 (configuration not stated) | inactive | –
61 | COC(=O)c1ccc(NC(=O)c2cccc(OC)c2)cc1 | inactive | –
62 | Cc1ccc(S(=O)(=O)N2CCCCC2)cc1C(=O)N(CCc1ccccc1)Cc1ccccc1 | inconclusive: 18.4 µM [falling, single point] | –
63 | CCc1ccccc1NC(=O)CSc1nncn2c1cc1oc(C)cc12 | inactive | –
64 | O=C(COC(=O)c1c2c(nc3ccccc13)CCN(Cc1ccccc1)C2)Nc1c(F)cccc1F | inconclusive: 23.1 µM [falling, partial curve] | –
65 | CC(=O)Nc1ccc(NC(=O)COC(=O)c2ccccn2)cc1 | inconclusive: 29.1 µM [activator, single point] | –
66 | CC(C)Cc1nc(SCc2cccnc2)c2c(=O)n(C)c(=O)n(C)c2n1 | inconclusive: 4.11 µM [falling, partial curve, poor fit] | –
67 | CCOC(=O)C(CC)n1nnc2sc(-c3ccccc3)cc2c1=O (configuration not stated) | inconclusive: 29.1 µM [falling, single point] | –
